Whole data set: some 33,000 sequences, median “E-score (-0.5 to 0.5)” near -0.016, cut for the highest 2% near 0.3. The list shows a part of the results.
Each sequence was assayed against T1, Yer184c (UniProt P39961) (assay: PBM E-score (8-mer binding enrichment) (E-score (-0.5 to 0.5)); higher = stronger / more preferred TF binding). Conditions: protein concentration: 100 nM; construct: GST-full length.
T1 sequence: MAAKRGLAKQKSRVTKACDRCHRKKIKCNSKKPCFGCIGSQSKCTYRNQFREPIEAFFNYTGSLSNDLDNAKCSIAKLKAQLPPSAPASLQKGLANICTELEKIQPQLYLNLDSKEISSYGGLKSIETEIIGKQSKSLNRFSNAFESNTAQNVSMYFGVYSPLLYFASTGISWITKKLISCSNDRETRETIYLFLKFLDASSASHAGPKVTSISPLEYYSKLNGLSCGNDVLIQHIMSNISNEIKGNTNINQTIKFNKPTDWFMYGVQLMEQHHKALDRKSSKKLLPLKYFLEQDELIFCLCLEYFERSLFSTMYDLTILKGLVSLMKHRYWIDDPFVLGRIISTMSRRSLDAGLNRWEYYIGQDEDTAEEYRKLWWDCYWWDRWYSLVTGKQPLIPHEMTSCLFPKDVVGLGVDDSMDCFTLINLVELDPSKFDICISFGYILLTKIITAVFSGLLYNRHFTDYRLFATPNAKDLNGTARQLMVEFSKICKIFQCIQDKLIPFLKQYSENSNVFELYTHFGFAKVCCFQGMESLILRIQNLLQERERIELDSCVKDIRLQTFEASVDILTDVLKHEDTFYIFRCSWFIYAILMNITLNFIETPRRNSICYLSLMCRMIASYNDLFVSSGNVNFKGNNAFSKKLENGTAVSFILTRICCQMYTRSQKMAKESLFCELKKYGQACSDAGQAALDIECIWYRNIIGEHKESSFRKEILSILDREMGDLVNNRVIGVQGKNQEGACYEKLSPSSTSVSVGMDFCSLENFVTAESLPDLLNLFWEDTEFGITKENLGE
Outline: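 The E-score, a modified Wilcoxon-Mann-Whitney statistic, was computed by the Universal PBM Analysis Suite for every ungapped eight-base word pooled with its reverse complement. Scans behind it were normalised with masliner after bound GST-tagged yeast transcription factors were detected with fluorescent anti-GST. The proteins, at about 100-200 nM, had been applied to universal all-10-mer Agilent arrays made double-stranded by primer extension.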
For GTGGAACA, the “PBM E-score” value was 0.0598.
CTACCTAC was tested, and the “PBM E-score” value was 0.0349.
For CACAGGTA, the “PBM E-score” value was -0.0737.
In the case of ACCCTTCA, the “PBM E-score” value was -0.142.
With CCTTATAG the “PBM E-score” value was -0.0177.
In the case of TAGATTGA, the “PBM E-score” value was 0.144.
With ACTAAGCC the “PBM E-score” value was 0.0886.
In the case of CCATATCG, the “PBM E-score” value was 0.0792.
For GAAACAGA, the “PBM E-score” value was 0.136.
For TACCCACA, the “PBM E-score” value was -0.0892.
With TCTCCCCA the “PBM E-score” value was -0.189.
ATGCCGGA was tested, and the “PBM E-score” value was 0.36.
TAAGGGTA was tested, and the “PBM E-score” value was -0.27.
For GGCCGGTA, the “PBM E-score” value was 0.248.
With CAATAACC the “PBM E-score” value was 0.13.
In the case of CCGGCTCA, the “PBM E-score” value was 0.362.
For ATGCCGAG, the “PBM E-score” value was 0.346.
With ATTCCAAT the “PBM E-score” value was 0.0583.
AAGGCGCG was tested, and the “PBM E-score” value was -0.244.
In the case of ATGCAATC, the “PBM E-score” value was -0.0539.
In the case of ATGGACTA, the “PBM E-score” value was 0.031.
In the case of CGTATGAA, the “PBM E-score” value was 0.206.
With CACACGAA the “PBM E-score” value was 0.0689.
For CTTCTTTA, the “PBM E-score” value was 0.0279.
In the case of AAACCCGC, the “PBM E-score” value was 0.135.
In the case of TGGTTACA, the “PBM E-score” value was -0.0662.
ATACCTTC was tested, and the “PBM E-score” value was -0.0606.
ACAGACTA was tested, and the “PBM E-score” value was -0.027.
With ACCAGAAG the “PBM E-score” value was -0.13.
In the case of CAGGCCGC, the “PBM E-score” value was 0.00977.
With GTAAATTA the “PBM E-score” value was -0.0205.
ACCTTCAG was tested, and the “PBM E-score” value was -0.205.
For ATTTCCGG, the “PBM E-score” value was 0.445.
For ATCTTCAG, the “PBM E-score” value was 0.0939.
In the case of GTGTGGCA, the “PBM E-score” value was -0.193.
With AAATTGGT the “PBM E-score” value was 0.105.
With CACCTTGG the “PBM E-score” value was -0.194.
For ACGTGGGC, the “PBM E-score” value was -0.254.
GCAGGCTA was tested, and the “PBM E-score” value was -0.172.
CTGCCGGA was tested, and the “PBM E-score” value was 0.349.
For ATGGCTTC, the “PBM E-score” value was 0.0134.
For ACTGAGAC, the “PBM E-score” value was 0.0598.
With ATTACGCC the “PBM E-score” value was 0.0362.
For CGGGTGGA, the “PBM E-score” value was -0.0511.
With TCGGTTAA the “PBM E-score” value was 0.333.
For AAATATCC, the “PBM E-score” value was 0.27.
In the case of ACGCCGAC, the “PBM E-score” value was 0.198.
With CTGCGAGC the “PBM E-score” value was -0.0863.
ATCTGTCA was tested, and the “PBM E-score” value was 0.0815.
With AACCGAAT the “PBM E-score” value was 0.199.
For CTCGATTC, the “PBM E-score” value was 0.0805.
With GCAAGTAA the “PBM E-score” value was -0.0502.
With TCTGAACA the “PBM E-score” value was -0.0173.
With CCAATAGG the “PBM E-score” value was -0.229.
In the case of ATGGTCTA, the “PBM E-score” value was -0.239.
For CTATTAGA, the “PBM E-score” value was -0.0899.
With GAAACGTC the “PBM E-score” value was -0.0761.
ACTAGTCA was tested, and the “PBM E-score” value was -0.164.
For CTCGCATA, the “PBM E-score” value was -0.152.
With AAGGGTTG the “PBM E-score” value was -0.0806.
In the case of AAATATCA, the “PBM E-score” value was 0.124.
AAGTTACC was tested, and the “PBM E-score” value was 0.281.
CCGGCCCA was tested, and the “PBM E-score” value was 0.181.
For CTACGAAC, the “PBM E-score” value was -0.0618.
With CCCGATAC the “PBM E-score” value was 0.0783.
For GTGCCAAA, the “PBM E-score” value was -0.00899.
With ATACAGAT the “PBM E-score” value was 0.111.
For CCGCATTA, the “PBM E-score” value was 0.0562.
ATACCCTC was tested, and the “PBM E-score” value was 0.0252.
For AGTTATGA, the “PBM E-score” value was 0.108.
In the case of ATCGAGTA, the “PBM E-score” value was -0.0791.
For CTTTGTGC, the “PBM E-score” value was 0.0691.
In the case of TCCACTCA, the “PBM E-score” value was -0.0411.
In the case of GTGTGCGA, the “PBM E-score” value was -0.126.
For CGGTCGAC, the “PBM E-score” value was 0.223.
With GTTGAGGA the “PBM E-score” value was 0.0739.
With AAAATAAA the “PBM E-score” value was 0.226.
ATTCAAAA was tested, and the “PBM E-score” value was 0.258.
With TGATGCCA the “PBM E-score” value was -0.0559.
CGGTTGTA was tested, and the “PBM E-score” value was -0.0768.
For CGGCGAAC, the “PBM E-score” value was 0.263.
AGAGTGAT was tested, and the “PBM E-score” value was -0.149.
For CTTTAACA, the “PBM E-score” value was 0.197.
In the case of GTTAATTA, the “PBM E-score” value was 0.257.
With ATGTTCTC the “PBM E-score” value was 0.0489.
In the case of CTACTTTC, the “PBM E-score” value was 0.0781.
For AGCCGGGA, the “PBM E-score” value was 0.311.
For ATGTCAGC, the “PBM E-score” value was -0.045.
With ACGGTTCT the “PBM E-score” value was -0.014.
For AACGGACG, the “PBM E-score” value was 0.159.
With CGCGGCGA the “PBM E-score” value was 0.253.
For AAGCTCCG, the “PBM E-score” value was 0.339.
For AGCGAAGA, the “PBM E-score” value was -0.105.
With CCCGTTAC the “PBM E-score” value was -0.0585.
TCGTCAAA was tested, and the “PBM E-score” value was 0.138.
In the case of AAACACAG, the “PBM E-score” value was 0.132.
In the case of CTACGGTA, the “PBM E-score” value was 0.0439.
With ACGAACTA the “PBM E-score” value was 0.157.
For CTCTTCAA, the “PBM E-score” value was -0.129.
With AAACTGAC the “PBM E-score” value was -0.0343.
With GATTTTCC the “PBM E-score” value was 0.132.
In the case of GTACTGTA, the “PBM E-score” value was -0.14.
For ATGGCGAC, the “PBM E-score” value was -0.117.
In the case of TCGGTCCA, the “PBM E-score” value was 0.0731.
In the case of ACTAATAG, the “PBM E-score” value was 0.108.
In the case of CGTACGAA, the “PBM E-score” value was 0.149.
ATCCCCTC was tested, and the “PBM E-score” value was -0.241.
For CTTGTTAA, the “PBM E-score” value was 0.0825.
For AACTGCCT, the “PBM E-score” value was -0.00368.
AAACTGTC was tested, and the “PBM E-score” value was -0.133.

Source: the supplement of paper PMC3334620
